Source: PubChem BioAssay (NCATS)
This list was built around the results that the source calls inconclusive (neither active nor inactive); the mix of calls is not that of the screen. Potencies of inconclusive entries are doubtful fits and often do not repeat. Calls of active or inactive are those of the source. The call rests on the fitted dose curve; in most records, active means well fitted cell-killing curve with a large enough effect; inconclusive means small, poorly fitted or top-dose-only effect, or effect the other way; inactive means no such curve, though single readings can be large or run the other way.

Test: Quantitative highthroughput screen to assess conditional lethalithy of SEM cells grown in RPMI1640 with dialyzed fetal bovine serum (RPMI+ds) (AID 1963884); further: nearly all actives have a fitted effect of over 35% in size
Conditions: SEM B-ALL cells, RPMI+dialyzed FBS, CellTiter-Glo viability, 48 h; viability: at 45.8 µM (top of the series)
Description: Assay Provider: Jason Cantor Ph.D.
Department of Biochemistry
University of Wisconsin-Madison, Madison, WI, USA
Chemical screening studies have identified drug sensitivities across hundreds of cancer cell lines but most putative therapeutics fail to translate. Discovery and development of drug candidates in models that more accurately reflect nutrient levels in human blood is a major challenge. Here we performed high-throughput screens in conventional versus Human Plasma-Like Medium (HPLM) to identify compounds that were "missed" when screening using the artificial culture condition. Sets of conditional anticancer compounds spanned phases of clinical development and included non-oncology drugs were assessed. […] We also traced conditional phenotypes for several chemotherapeutics to availability of HPLM-specific metabolites and confirmed others for compounds whose reported targets are encoded by nonessential genes. Our findings establish generalizable strategies for exploiting conditional lethality in HPLM to reveal therapeutic candidates and mechanisms of action in cancer cells.
Described herein are the results of each viability screens against three cell lines: NOMO1 (an acute myeloid leukemia cell line); P12-Ichikawa (a T-cell acute lymphoblastic leukemia); and SEM (a B-cell ALL). Each assay was screened using 3 different cell culture media: homemade human plasma-Like medium with 10% dialyzed fetal bovine serum (HPLM+ds); RPMI1640 with 10% untreated FBS and 5mM glucose (RPMI+s); and RPMI1640 with 10% dialyzed fetal bovine serum and 5 mM glucose (RPMI+ds).
PROTOCOL TABLE (as described by Inglese J, Shamu CE and Guy RK. 2007)
SEQUENCE No. (e.g., 1, 2, 3, etc.); […] (e.g., Cells, Incubation, Reagent, etc.); VALUE and DESCRIPTION.
1; Cells; 5 uL; white, solid bottom 1536-well Greiner assay plate.
2; Compounds; 23 nL; Kalypsis pin tool (Wako USA) equipped with a 1536-well pin head to transfer to the assay plates.
3; Incubation; 48 hours; 37C incubation.
4; Reagent; 3 uL; CellTiter Glo (Promega).
5; Incubation; 5 min, room temperature
6; Detection; Luminescence, Viewlux PerkinElmer.
NOTES (numbers refer to Sequence numbers above)
1. Briefly, 5 ul of cell reagent was dispensed using a Multidrop Combi Dispenser. The NOMO1 and SEM cells were plated at 500 cells/well and the P12-Ichikawa line at 1000 cells/well.
2. After seeding the cells, 23 nL of MIPE 4.1 library compounds (in DMSO) were added to each plate using a Kalypsys 1536 Pintool dispenser. Bortezomib at final concentration of […] and DMSO were added to each plate as positive and negative controls respectively. For each screen, MIPE 4.1 compounds were added over an eleven-point concentration range […] in 3-fold dilutions.
3. Each plate was covered with a stainless steel gasketed lid to prevent evaporation and incubated for 48 hour at 37C, 95% relative humidity, and 5% CO2.
4-5. Three microliter CellTilter-GloTM luminescent substrate mix (Promega) reagent was added to the assay plate and incubated at room temperature for 5 min.
6. The luminescence signal was measured using a ViewLux (PerkinElmer) multiplate reader with a 2 second exposure time per plate. Data for each compound were normalized as percent viability such that measurements for DMSO and the empty well controls in each plate were defined as 100% and 0%, respectively.
Potency means the concentration at half of the fitted maximal effect.

SMILES | Potency
CN1CCN2c3ncccc3Cc3ccccc3C2C1 (stereo not given) | inactive
C[C@H](NC(=O)c1sccc1OCc1ccc(Cl)cc1)c1ccccc1 | inconclusive: 3.72 µM [cytotoxic, full curve, poor fit]
CCc1cc2c(cc1N1CCC(N3CCOCC3)CC1)C(C)(C)c1[nH]c3cc(C#N)ccc3c1C2=O | inconclusive: 18.7 µM [cytotoxic, partial curve, poor fit]
O=C(O)c1cc(=O)c2c(OCC(O)COc3cccc4oc(C(=O)O)cc(=O)c34)cccc2o1 | inactive
Clc1ccc(C(c2ccccc2Cl)C(Cl)Cl)cc1 (stereo not given) | inconclusive: 2.09 µM [cytotoxic, full curve, poor fit]
Cc1cc2c(F)c(Oc3ncnn4cc(OC[C@@H](C)O)c(C)c34)ccc2[nH]1 | active: 9.35 µM
O=C1NC(=O)C(c2ccccc2[N+](=O)[O-])=C1Nc1ccc(O)c(Cl)c1 | inconclusive: 16.6 µM [cytotoxic, partial curve]
CC[C@@H]([C@H](C)O)n1ncn(-c2ccc(N3CCN(c4ccc(OCC5CO[C@@](Cn6cncn6)(c6ccc(F)cc6F)C5)cc4)CC3)cc2)c1=O (stereo not given in full) | inactive
COc1cc2c(cc1-c1c(C)noc1C)ncc1[nH]c(=O)n([C@H](C)c3ccccn3)c12 | active: 1.48 µM
CCCOc1ccc2nc(NC(=O)OC)[nH]c2c1 | active: 0.0209 µM
C[C@H]1C[C@@H]2[C@@H]([C@@H](O)C[C@@]3(C)[C@H]2CC[C@]3(O)C(=O)CO)[C@@]2(C)C=CC(=O)C=C12 | inconclusive: 0.59 µM [cytotoxic, full curve]
COc1ccc(CCN(C)CCCOc2ccc(S(=O)(=O)c3[nH]c4ccccc4c3C(C)C)cc2)cc1OC | inconclusive: 33.2 µM [cytotoxic, single point]
O=C(O)CCNc1cc(N2CCc3ccccc3CC2)nc(-c2ccccn2)n1 | inactive
CCCCC(=O)O[C@]1(C(=O)CO)[C@@H](C)C[C@H]2[C@@H]3CCC4=CC(=O)C=C[C@]4(C)[C@@]3(F)[C@@H](O)C[C@@]21C | inconclusive: 0.0743 µM [cytotoxic, full curve]
CC(C)OC(=O)CCCC=CC[C@@H]1[C@H](C=C[C@@H](O)COc2cccc(C(F)(F)F)c2)[C@H](O)C[C@@H]1O | inconclusive: 18.7 µM [cytotoxic, partial curve, poor fit]
Cc1ccnc2c1NC(=O)c1cccnc1N2C1CC1 | inactive
COc1ccc(-c2ccc3ncc4c(c3c2)n(-c2ccc(N3CCNCC3)c(C(F)(F)F)c2)c(=O)n4C)cn1 | inconclusive: 0.059 µM [cytotoxic, full curve]
C[C@@H](N)c1ccc(C(=O)Nc2ccnc3[nH]ccc23)cc1 | inconclusive: 18.7 µM [cytotoxic, partial curve]
CC=CCC=CCCC(=O)[C@H]1O[C@@H]1C(N)=O | inconclusive: 33.2 µM [cytotoxic, partial curve, poor fit]
CC(=CC(=O)Nc1ccccc1C(=O)O)c1ccc2ccccc2c1 | inconclusive: 33.2 µM [cytotoxic, single point]

SMILES | Potency
COc1ncc(-c2ccc3nccc(-c4ccnnc4)c3c2)cc1NS(=O)(=O)c1ccc(F)cc1F | active: 0.372 µM
COc1ccccc1N1CCN(CC(O)COc2cccc3ccccc23)CC1 (stereo not given) | inconclusive: 0.0012 µM [rising, full curve]
COC(=O)C1=CO[C@@H](O)[C@@H]2C(CO)=CC[C@@H]12 | inconclusive: 0.0012 µM [rising, full curve]
CCOC(=O)N1CCN([N+]([O-])=NOc2ccc([N+](=O)[O-])cc2[N+](=O)[O-])CC1 | active: 4.69 µM
CC1(C)OC2=C(C(=O)c3ccccc3C2=O)[C@H](NCc2ccccc2)[C@H]1O | active: 16.6 µM
CNC(=O)c1ccccc1Nc1nc(Nc2ccc(N3CCOCC3)cc2OC)ncc1Cl | inconclusive: 3.32 µM [cytotoxic, full curve]
Cn1cc(C=C2C(=O)Nc3cccnc32)c2ccccc21 | inconclusive: 6.62 µM [cytotoxic, full curve]
CC(C)(O)CCc1ccc(OCc2cc(-c3cccc(OC(F)F)c3)c3ncccc3c2)cc1 | inactive
Cn1cc(-c2ccc3nnc(Sc4ccc5ncccc5c4)n3n2)cn1 | inactive
CCOC(=O)[C@H](CCc1ccccc1)N[C@H]1CCc2ccccc2N(CC(=O)O)C1=O | inconclusive: 33.2 µM [cytotoxic, single point]
NC(=O)c1ccc(-c2nc(-c3ccc4c(c3)OCCO4)c(-c3ccccn3)[nH]2)cc1 | inactive
COc1ccc(C2CNC(=O)C2)cc1OC1CCCC1 (stereo not given) | inactive
O=C(Nc1nc2cccc(-c3ccc(CN4CCS(=O)(=O)CC4)cc3)n2n1)C1CC1 | inconclusive: 23.5 µM [cytotoxic, partial curve]
FC(F)c1nc2ccccc2n1-c1nc(N2CCOCC2)nc(N2CCOCC2)n1 | inconclusive: 16.6 µM [cytotoxic, partial curve]
O=C(O)[C@@H](c1ccc(OCc2ccc3ccccc3n2)cc1)C1CCCC1 | inconclusive: 2.35 µM [cytotoxic, partial curve, poor fit]
Cc1cnc(C(=O)NCCc2ccc(S(=O)(=O)NC(=O)NC3CCCCC3)cc2)cn1 | inconclusive: 37.2 µM [cytotoxic, partial curve, poor fit]
O=C(O)CCCCCC(=O)NN=C1CCCC1 | inactive
O=C1CCc2cc(OCCCCc3nnnn3C3CCCCC3)ccc2N1 | inactive
CCNc1cc(NC2CCC(O)CC2)nc(Nc2ccc3c(ccn3Cc3ccccc3)c2)n1 (stereo not given) | inconclusive: 20.9 µM [cytotoxic, single point]
C[C@@H](O[C@H]1OCCN(Cc2n[nH]c(=O)[nH]2)[C@@H]1c1ccc(F)cc1)c1cc(C(F)(F)F)cc(C(F)(F)F)c1 | inconclusive: 18.7 µM [cytotoxic, partial curve]

Ordered by count of non-hydrogen atoms (falling): some entries from above
SMILES | Potency
COc1ccccc1N1CCN(CC(O)COc2cccc3ccccc23)CC1 (stereo not given) | inconclusive: 0.0012 µM [rising, full curve]
CCOC(=O)N1CCN([N+]([O-])=NOc2ccc([N+](=O)[O-])cc2[N+](=O)[O-])CC1 | active: 4.69 µM
O=C(O)CCCCCC(=O)NN=C1CCCC1 | inactive
